In article PMC13557503:
These are yes or no findings as the source states them, for the method shown. In cells and extracts the contact can be indirect. A yes stands for co-enrichment or nearness to the bait. Other partners may have been found.

By UniProt entry, the sequences of proteins in these tests, tags left out. Where a name states a change or a piece, a line headed by the entry shows the natural chain unless it says otherwise.
UniProt F7W136: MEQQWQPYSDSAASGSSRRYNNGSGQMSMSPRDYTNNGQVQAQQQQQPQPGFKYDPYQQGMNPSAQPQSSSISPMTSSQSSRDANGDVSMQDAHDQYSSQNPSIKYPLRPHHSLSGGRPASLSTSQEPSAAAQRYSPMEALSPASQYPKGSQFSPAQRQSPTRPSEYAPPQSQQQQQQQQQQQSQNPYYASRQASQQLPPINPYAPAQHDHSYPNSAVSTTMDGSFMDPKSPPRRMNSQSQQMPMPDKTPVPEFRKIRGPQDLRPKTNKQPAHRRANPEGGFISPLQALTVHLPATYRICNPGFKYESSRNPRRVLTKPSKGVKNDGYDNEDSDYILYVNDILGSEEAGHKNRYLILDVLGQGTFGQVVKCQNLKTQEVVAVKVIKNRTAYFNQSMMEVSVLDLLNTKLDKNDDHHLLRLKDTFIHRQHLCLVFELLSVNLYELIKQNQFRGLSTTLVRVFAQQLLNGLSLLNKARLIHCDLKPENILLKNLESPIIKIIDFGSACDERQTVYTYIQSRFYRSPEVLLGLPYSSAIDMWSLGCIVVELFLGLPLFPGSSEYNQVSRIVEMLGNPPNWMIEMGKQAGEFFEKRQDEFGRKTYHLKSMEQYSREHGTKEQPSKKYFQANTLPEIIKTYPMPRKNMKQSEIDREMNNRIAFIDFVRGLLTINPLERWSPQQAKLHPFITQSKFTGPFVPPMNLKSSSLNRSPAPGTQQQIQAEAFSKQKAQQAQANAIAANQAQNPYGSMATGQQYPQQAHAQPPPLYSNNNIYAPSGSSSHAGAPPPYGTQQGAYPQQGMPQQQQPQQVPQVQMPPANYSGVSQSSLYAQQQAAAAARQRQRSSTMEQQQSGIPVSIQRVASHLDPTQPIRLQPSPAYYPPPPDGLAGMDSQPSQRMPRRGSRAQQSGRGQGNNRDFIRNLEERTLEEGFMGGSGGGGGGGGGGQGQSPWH
UniProt F7VT55: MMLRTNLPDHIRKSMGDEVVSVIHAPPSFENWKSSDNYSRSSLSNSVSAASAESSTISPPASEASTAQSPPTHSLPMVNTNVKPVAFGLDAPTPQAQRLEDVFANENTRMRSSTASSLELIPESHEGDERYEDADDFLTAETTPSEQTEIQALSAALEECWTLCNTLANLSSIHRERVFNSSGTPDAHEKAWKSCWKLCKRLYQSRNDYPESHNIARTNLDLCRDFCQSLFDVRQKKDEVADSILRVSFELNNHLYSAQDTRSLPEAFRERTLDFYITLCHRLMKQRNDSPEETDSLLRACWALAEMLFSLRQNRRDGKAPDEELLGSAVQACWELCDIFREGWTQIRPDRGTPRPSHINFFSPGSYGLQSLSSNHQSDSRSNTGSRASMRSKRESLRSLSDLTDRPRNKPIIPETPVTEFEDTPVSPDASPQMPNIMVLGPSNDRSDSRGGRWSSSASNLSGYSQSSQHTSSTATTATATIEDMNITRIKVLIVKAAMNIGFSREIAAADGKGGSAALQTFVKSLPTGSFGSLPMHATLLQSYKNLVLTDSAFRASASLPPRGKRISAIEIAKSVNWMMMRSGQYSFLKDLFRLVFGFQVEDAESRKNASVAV
UniProt F7VSX1: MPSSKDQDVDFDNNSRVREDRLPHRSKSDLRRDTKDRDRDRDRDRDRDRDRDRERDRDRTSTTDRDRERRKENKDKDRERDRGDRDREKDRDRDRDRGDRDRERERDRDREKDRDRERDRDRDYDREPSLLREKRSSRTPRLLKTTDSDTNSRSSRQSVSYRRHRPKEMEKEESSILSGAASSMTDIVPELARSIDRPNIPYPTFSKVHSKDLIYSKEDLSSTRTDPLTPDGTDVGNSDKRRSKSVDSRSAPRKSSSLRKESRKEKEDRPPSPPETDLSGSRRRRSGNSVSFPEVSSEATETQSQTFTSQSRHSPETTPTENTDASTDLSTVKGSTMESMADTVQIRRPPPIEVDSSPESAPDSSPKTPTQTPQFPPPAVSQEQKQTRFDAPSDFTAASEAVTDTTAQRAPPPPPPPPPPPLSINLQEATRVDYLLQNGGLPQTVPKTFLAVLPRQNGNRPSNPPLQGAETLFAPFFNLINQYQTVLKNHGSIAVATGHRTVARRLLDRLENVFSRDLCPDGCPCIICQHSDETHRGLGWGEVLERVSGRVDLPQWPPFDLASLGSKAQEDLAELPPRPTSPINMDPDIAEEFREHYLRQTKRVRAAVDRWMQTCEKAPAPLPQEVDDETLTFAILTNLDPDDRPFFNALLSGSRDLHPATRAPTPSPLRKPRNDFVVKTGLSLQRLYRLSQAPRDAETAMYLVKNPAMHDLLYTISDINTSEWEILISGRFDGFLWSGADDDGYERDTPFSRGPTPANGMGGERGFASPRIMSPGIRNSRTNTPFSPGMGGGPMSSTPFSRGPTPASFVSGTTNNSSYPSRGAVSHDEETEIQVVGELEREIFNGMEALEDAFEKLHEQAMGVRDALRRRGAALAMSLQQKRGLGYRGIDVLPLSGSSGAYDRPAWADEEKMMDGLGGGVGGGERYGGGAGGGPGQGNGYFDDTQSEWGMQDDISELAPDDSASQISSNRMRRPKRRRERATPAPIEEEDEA

How the values were obtained:
[1] = biological target: SmDOC1-TurboID (S. macrospora) (UniProt F7W7B4); experiment: proximity labelling; TurboID BioID in vivo with SmDOC1-TurboID from the native locus as bait against wt::egfp-TurboID^ect; liquid BMM, three days, 27 °C, constant light; extraction with 4% SDS, Strep-Tactin Sepharose, LC-MS; n = 5; FDR 0.01, s0 2
[2] = biological target: SCI1-TurboID (S. macrospora); experiment: proximity labelling; TurboID BioID in vivo with SCI1-TurboID as bait (Δsci1::sci1-TurboID^ect) against the free TurboID control (wt::free-TurboID^ect); liquid BMM, three days, 27 °C, constant light; extraction with 4% SDS, Strep-Tactin Sepharose, LC-MS; eight replicates; FDR 0.01, s0 0.1
[3] = biological target: SCI1-TurboID (S. macrospora); experiment: proximity labelling; TurboID BioID in vivo with SCI1-TurboID as bait (Δsci1::sci1-TurboID^ect) against the SmSTRIPAK-dependent control Δpro11Δsci1::sci1-TurboID^ect; liquid BMM, three and four days, 27 °C, constant light; extraction with 4% SDS, Strep-Tactin Sepharose, LC-MS; eight replicates; FDR 0.01, s0 2

Molecule | binding [1] | binding [2] | binding [3]
YAK1 (from UniProt F7W136) | binds | – | –
SMAC_05755 (from UniProt F7VT55) | binds | – | –
PRO11 (protein, UniProt Q70M86 1-845) MGTNGVHVSFGAGHEMGGVMGNGSGQPPATEYTLQGVMRFLQTEWHRHERDRNAWEIEKQEMRARIANLEGQARRADATQKALKRYVSILEKKVKEQSAALKSGGKEKGVEDEAEAEDNKTKLDRSALIQEKLRPNTKLSGAPNEAENVEIGPPDDESARNELKTFLDQCQAEFTYLMVTPANPQPPRESPPLPILDDFREGEALNQQLEQSYQRSQQSQIRDLLAQQAAAANATNVAAVQSQQQQPQQQQHAVGPRPQTNQPPKGYGELAQGAPMERSSRGQQLHDILKSGETPDWSASMQSQPVEEPTSALSKAPPMVRGDGREPAVPKSASTTDAWDFNESNFQDPNAMPQPTPQQSFSSRPDTDAFPSAENLTKSPNRGALSHRRKSSSGMARRRSAEHELSLGSLQQKAEGTMFKFRFGLRGHLDVVRTVIFSGGGSPGEPEICTAGDDGLVKRFHIPDRHIGQRNADGDLDVAADFTHRGHSGAVLSLASWSPSPNFSTGGRAQGDGWIFSGGQDATIRVWERGRVDPKATLDGHTDAVWALCVLPTNLGAIFGQTNSHGPPDRILLVSGAADGTVKVWAVSAPPQLTSPQPGPGRRGPGGRVRGNSMSSGSAFPSSPQPTTASNSPFHHTLVHTIKRANSEASPTCITALSPNGETFAVSYADAAIIVYDTRSGEEIGTMASLDTYDGTNNTAVNAVVATTVGLDQTQGPGGEDESGGGPTGGGRSMAGSGVEGTIISGHEDRYIRFFDANSGQCTYNMLAHPGSVSSLSLSPDGRELVSAGHDMSLRFWSLETRSCTQEMTCHRSMRGEGVCAVVWSQDGRWVVSSGGDGMVKVYAR | – | binds | binds

Further lines, results first:

binding [1] | binding [2] | binding [3] | Molecule
binds | – | – | SMAC_05428 (from UniProt F7VSX1)
– | binds | binds | PRO22 (protein, UniProt F7VWV9 1-1120) MTIMNALWSKATSSSGDSAQKSAKPTNDAVNTTSEALPDLSERPNAPALPARPALQRNQPSAPPPAAPSNPPPPVPSGSGSGNANNASAQPQDSLSLAQLRRIVAEFPKSEPIAYDYVYSDMGPIEEEVDEWFFYDFWQYVRLNNANHAFDSAWVKMYGEDETWESVDDDGREKFVRNEVEQLQVSSDKTARVEAIGTLLYIVLGRWTATVKKANLPNLADHKVKSAATKEQLDAMKAGVKLLAKYGGLPPMWDALRKAFELFWADDGDASQRVQANNEELMELMHLMTILYISLQTTMDDVEDMAVARKELLALNPNLVHFMLHATAKLRWDDRNILPQAQVGSATFGIPVAANQHRMLMSSQVFLLFWKSLLLVFGGSKHIAEAKKATAETLSDVKDKEIITASPLDYHVFRQEITSKYPSYIPPQCAIPLEAEQTSILPPLPNHPTRNNGQNGILPGPPNQSASASILHQPVHIATPAPSPPPSPGVGGKGGKKQNYQTNQNFPFMYPPLDATSNSAGGKGGAGLQDLLVGRKWEGSDVPASIIEAGELFSTRTRMTRATRQLWEERERFLKFERGWEGADEDLIDELDLSELTLEEKEELGLLKESEKKKEKHGHEIDLGPRPVDDDIKRRLEAVEEFYKEALPHLQSLVIVLLKAIVAIASSFVQPPPGQQNPGPQNNGRAGGGPPQGRGQNNGNNASNDPPSPSDDNVDEARSREIAAKAVTGIMILLLKWLKLSHILKFEYFTQLLLDSNYLPLVLKLFALHDVQQVVESKTDRIEHSFFYFCASRSGVIPPQGLINPTATDFEDVDVSEDEAAPPAIKRNRSPPGAEKGGPPDASSQPTQQQQQQQRFENSDVQSRPEVDELGYPVNPLPKEPITDFSRRNFFSLINYLRVMQKICKHKAHRNLLLVHYKSSNILRKSLKVPQQELRLYTLKLFKNQVPYCGRKWRQSNMRVITAIYLHCRPELRDEWLSGSDVDAEVEEALPLEQALRSLTHWFNVQRYPERMGAEVTAAMREERDFFTRELEKSDWMGWEGIMAGGGMGMDGGGGGPEPMMGMQGMQGMPGMPGMGMGMNMGMPGMGIGGMPGMGGMAGIEYAAAAAAAQTEHENSMGWS
